From patent US20210340217A1, “NOVEL PEPTIDES AND COMBINATION OF PEPTIDES FOR USE IN IMMUNOTHERAPY AGAINST OVARIAN CANCER AND OTHER CANCERS” (Immatics Biotechnologies GmbH, priority 2017, published 2021)
For expression read-outs the peptide stands for its source gene, whose mRNA was measured; the gene is not named for every peptide.

test system: source genes in OC tumors compared to a panel of normal tissues; assay: Expression profiling of genes encoding the peptides (RNAseq), expression scores; parameters: species or system human; key: very highly over-expressed in OC tumors compared to a panel of normal tissues (+++); highly over-expressed in OC tumors compared to a panel of normal tissues (++); over-expressed in OC tumors compared to a panel of normal tissues (+); conditions: expression score of source gene

Substance | Gene Expression
154: peptide found in CRABP2 (gene looked up) (MLRKIAVAA; listed as Homo sapiens) [compound 154] | ++
183: peptide found in ETV1 (gene looked up) (YEKGIMQKV; listed as Homo sapiens) [compound 183] | ++
412: peptide found in IGF2BP3 (gene looked up) (QEILTQVKQ; listed as Homo sapiens) [compound 412] | +++
234: peptide found in MUC16 (gene looked up) (GVATRVDAI; listed as Homo sapiens) [compound 234] | +++
312: peptide found in HTR3A (gene looked up) (LPYFREFSM; listed as Homo sapiens) [compound 312] | +++
128: peptide found in KLK14 (gene looked up) (YPRTITPGM; listed as Homo sapiens) [compound 128] | +
413: peptide found in IGF2BP3 (gene looked up) (IEALSGKIEL; listed as Homo sapiens) [compound 413] | +++
23: peptide found in ESR1 (gene looked up) (GMMKGGIRK; listed as Homo sapiens) [compound 23] | +++
290: peptide found in MYO3B (gene looked up) (DMDEEIEAEY; listed as Homo sapiens) [compound 290] | +++
91: peptide found in ETV1 (gene looked up) (RSLRYYYEK; listed as Homo sapiens) [compound 91] | ++
272: peptide found in MSLN (gene looked up) (RQPERTILRPR; listed as Homo sapiens) [compound 272] | ++
70: peptide found in MUC16 (gene looked up) (VLQGLLRSL; listed as Homo sapiens) [compound 70] | +++
248: peptide found in MSLN (gene looked up) (SVIQHLGY; listed as Homo sapiens) [compound 248] | ++
198: peptide found in MSLN (gene looked up) (QEAARAAL; listed as Homo sapiens) [compound 198] | ++
26: peptide found in MYO3B (gene looked up) (RISEYLLEK; listed as Homo sapiens) [compound 26] | +++
218: peptide found in CD70 (gene looked up) (TIASQRLTPL; listed as Homo sapiens) [compound 218] | ++
37: peptide found in MUC16 (gene looked up) (RPLFQKSSM; listed as Homo sapiens) [compound 37] | +++
187: peptide found in FOLR1 (gene looked up) (GEAQTRIAW; listed as Homo sapiens) [compound 187] | ++
266: peptide found in IGF2BP1 (gene looked up) (ISYSGQFLVK; listed as Homo sapiens) [compound 266] | +++
220: peptide found in FOLR1 (gene looked up) (RMTTQLLLL; listed as Homo sapiens) [compound 220] | ++
121: peptide found in EYA2 (gene looked up) (VPNQSSESL; listed as Homo sapiens) [compound 121] | +++
194: peptide found in MAGEA11 (gene looked up) (KEVDPTSHSY; listed as Homo sapiens) [compound 194] | +++
270: peptide found in MMP12 (gene looked up) (AVFNPRFYRTY; listed as Homo sapiens) [compound 270] | +++
